Measurements as given in publication PMC12397910.
Weaker means in comparison with the reference protein, sequence or condition of that experiment. For at least one entry, the source does not settle the construct or the ends of the probe. At least one verdict was read from the data and is not stated in words by the source.

Chains of the proteins cited; added tags and fusions are not shown.
UniProt P08047, whole entry: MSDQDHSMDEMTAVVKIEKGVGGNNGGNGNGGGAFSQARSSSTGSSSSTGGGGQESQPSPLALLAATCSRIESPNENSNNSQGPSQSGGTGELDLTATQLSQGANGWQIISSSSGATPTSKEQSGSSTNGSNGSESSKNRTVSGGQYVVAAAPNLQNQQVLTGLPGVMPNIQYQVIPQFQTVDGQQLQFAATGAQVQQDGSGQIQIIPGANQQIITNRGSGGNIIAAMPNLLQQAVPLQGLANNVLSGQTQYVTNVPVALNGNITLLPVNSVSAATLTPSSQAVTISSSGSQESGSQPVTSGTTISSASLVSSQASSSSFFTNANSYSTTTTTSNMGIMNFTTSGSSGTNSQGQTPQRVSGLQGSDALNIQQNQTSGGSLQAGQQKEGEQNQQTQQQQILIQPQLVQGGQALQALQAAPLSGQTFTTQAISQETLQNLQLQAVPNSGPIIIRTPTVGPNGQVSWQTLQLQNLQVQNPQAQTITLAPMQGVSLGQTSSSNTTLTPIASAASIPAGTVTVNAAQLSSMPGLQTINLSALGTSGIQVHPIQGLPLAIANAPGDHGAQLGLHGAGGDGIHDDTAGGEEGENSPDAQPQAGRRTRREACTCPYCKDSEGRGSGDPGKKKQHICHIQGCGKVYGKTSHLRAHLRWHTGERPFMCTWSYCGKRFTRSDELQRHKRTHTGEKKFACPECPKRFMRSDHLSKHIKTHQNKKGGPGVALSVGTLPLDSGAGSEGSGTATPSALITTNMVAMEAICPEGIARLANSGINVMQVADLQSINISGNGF

Columns and labels:
SP1 [1] = molecular target: SP1 (UniProt P08047); assay: EMSA; settings: EMSA: 10 mM HEPES-NaOH pH 7.3, 50 mM KCl, 5 mM MgCl2, 0.5 mM DTT, 5% glycerol, 0.5 mg/mL BSA, 1 h, gel at 4 C, commercial protein, residues 1-785
SP1 [2] = molecular target: SP1 (UniProt P08047); assay: BLI; settings: BLI: PBS, room temperature, oligos annealed in 10 mM Tris-HCl pH 7.5 +/- 100 mM KCl, commercial protein, residues 1-785, label: 5' biotin (BLI), single-stranded DNA, letters put together from the description

Does “AGAGACCGGGGGCGGGGAGACGAG [PCNG4, annealed without KCl]” bind (SP1 [1]; annealed without KCl, bound poorly, single-stranded DNA, letters put together from the description)?
Result: binds more weakly

Does “AAAGGCCGGGGGCGGGGAGGCAAA [GI/IVA 24-nt, annealed with KCl]” bind (SP1 [2]; annealed in KCl, response slope 0.12 vs 0.22 for WT (KCl))?
Result: binds more weakly

Does “AAAGGCCGGGGGCGGGGAGGCAAA [GI/IVA 24-nt, annealed with KCl]” bind (SP1 [1]; substantially reduced, Kd only in Fig 2C, label: 5' biotin (BLI), single-stranded DNA, letters put together from the description)?
Result: binds more weakly

Does “AGAGACCGAGAGCAGAGAGACGAG [Negative control (NC) 24-nt]” bind (SP1 [1]; substantially reduced, some non-specific binding, single-stranded DNA, letters put together from the description)?
Result: binds more weakly

Which results are given for “GGGGGCCGGGGGCGGGGAGGCGGG [Bcl3 WT 24-nt, annealed without KCl]”?
binding result (SP1 [2]; annealed without KCl, local 1:1 fit at 457 nM SP1, range given for all no-KCl oligos): binds more weakly; Kd (SP1 [1]; annealed without KCl, label: 5' biotin (BLI), single-stranded DNA, letters put together from the description): 148 nM

Does “CAGGAAACCCCTGGGGCGTACGGGTGGCCCCGGGGGGGCCGGGGGCGGGGAGGCGGGCGGCCGGCACCGCCCCGGCCGACAAAAGTCCCT (double strand) [dsBcl3 WT 90 bp]” bind (SP1 [1]; SP1:G4 complexes and condensates, well signal reduced by 1,6-hexanediol)?
Result: binds
